Drawing on PMC7814060, this text covers binding for two molecules.

Chains of the proteins cited; added tags and fusions are not shown.
UniProt O94953: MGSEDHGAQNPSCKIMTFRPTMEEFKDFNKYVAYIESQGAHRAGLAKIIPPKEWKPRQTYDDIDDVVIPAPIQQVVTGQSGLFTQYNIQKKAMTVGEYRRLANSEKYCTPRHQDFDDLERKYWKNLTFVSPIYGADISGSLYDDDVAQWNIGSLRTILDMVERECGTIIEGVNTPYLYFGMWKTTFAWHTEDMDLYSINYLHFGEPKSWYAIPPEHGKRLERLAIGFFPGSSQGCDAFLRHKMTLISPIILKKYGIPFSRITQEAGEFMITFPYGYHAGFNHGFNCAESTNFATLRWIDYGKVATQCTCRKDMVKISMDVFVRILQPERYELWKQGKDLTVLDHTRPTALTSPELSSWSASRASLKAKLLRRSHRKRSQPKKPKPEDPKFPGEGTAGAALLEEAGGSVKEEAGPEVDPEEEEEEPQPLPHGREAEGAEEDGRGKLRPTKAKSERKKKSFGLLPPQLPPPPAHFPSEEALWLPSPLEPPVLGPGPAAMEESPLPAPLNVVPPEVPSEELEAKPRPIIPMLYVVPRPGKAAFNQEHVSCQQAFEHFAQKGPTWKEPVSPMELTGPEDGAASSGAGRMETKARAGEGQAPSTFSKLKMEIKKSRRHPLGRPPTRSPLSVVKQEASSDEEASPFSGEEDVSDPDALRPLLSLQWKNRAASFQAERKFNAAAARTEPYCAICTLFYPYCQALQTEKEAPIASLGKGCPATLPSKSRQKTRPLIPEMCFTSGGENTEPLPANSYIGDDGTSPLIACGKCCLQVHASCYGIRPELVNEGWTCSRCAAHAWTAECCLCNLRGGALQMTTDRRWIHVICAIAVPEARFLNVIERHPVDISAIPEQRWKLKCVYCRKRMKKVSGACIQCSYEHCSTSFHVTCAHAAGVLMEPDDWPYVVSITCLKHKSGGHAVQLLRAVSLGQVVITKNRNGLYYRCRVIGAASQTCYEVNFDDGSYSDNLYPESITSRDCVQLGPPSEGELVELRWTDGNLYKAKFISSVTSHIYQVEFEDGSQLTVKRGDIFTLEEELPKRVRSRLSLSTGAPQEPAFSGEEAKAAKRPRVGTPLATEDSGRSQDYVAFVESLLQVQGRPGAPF

Results are given in words; binding and its absence hold for the method and conditions named. Binding seen in cells or lysates may run through a third protein.

In assay [1] the target is p53 (mutant, endogenous in LN215 glioblastoma cells) (human (endogenous in LN215)) (UniProt P04637). Description: co-IP; endogenous proteins; lysates of U87, LN215 and SNB19 cells incubated with anti-p53 monoclonal antibody (sc-126) at 4 °C overnight, protein A/G agarose 3 h, immunoblot. In general terms: A western blot detects proteins with antibodies after separation by electrophoresis.

The target of assay [2] is p53 (mutant, endogenous in SNB19 glioblastoma cells) (human (endogenous in SNB19)) (UniProt P04637). The description is as above.

“KDM4B (endogenous in glioblastoma cells) (from UniProt O94953 1-1096)”: the binding entry in assay [1] and in assay [2] was “no binding” throughout.

B1: KDM4D (endogenous in glioblastoma cells) (protein, UniProt Q6B0I6 1-523)
chain: METMKSKANCAQNPNCNIMIFHPTKEEFNDFDKYIAYMESQGAHRAGLAKIIPPKEWKARETYDNISEILIATPLQQVASGRAGVFTQYHKKKKAMTVGEYRHLANSKKYQTPPHQNFEDLERKYWKNRIYNSPIYGADISGSLFDENTKQWNLGHLGTIQDLLEKECGVVIEGVNTPYLYFGMWKTTFAWHTEDMDLYSINYLHLGEPKTWYVVPPEHGQRLERLARELFPGSSRGCGAFLRHKVALISPTVLKENGIPFNRITQEAGEFMVTFPYGYHAGFNHGFNCAEAINFATPRWIDYGKMASQCSCGEARVTFSMDAFVRILQPERYDLWKRGQDRAVVDHMEPRVPASQELSTQKEVQLPRRAALGLRQLPSHWARHSPWPMAARSGTRCHTLVCSSLPRRSAVSGTATQPRAAAVHSSKKPSSTPSSTPGPSAQIIHPSNGRRGRGRPPQKLRAQELTLQTPAKRPLLAGTTCTASGPEPEPLPEDGALMDKPVPLSPGLQHPVKASGCSWAPVP
For B1, the binding entry in assay [1] and in assay [2] was “no binding” each time.
